From patent US6884907B2, “Hydroxamic acids and acyl hydroxamines as naaladase inhibitors” (Guilford Pharmaceuticals Inc., priority 2001, dated 2005)

System: rats with unilateral IOP elevation
Assay: Experimental rat glaucoma (IOP elevation, optic nerve fiber counting)
Type: in vivo, Brown Norway rats (Rattus norvegicus)
Conditions: 10 mg/kg i.p. daily, glaucoma eye versus normal eye

| SMILES | IOP Integral Difference (8 Week group) | IOP Integral Difference (12 Week group) |
| --- | --- | --- |
| O=C(O)CCC(CP(=O)(O)Cc1c(F)c(F)c(F)c(F)c1F)C(=O)O (stereo not drawn) [Compound A, 2-[[(2,3,4,5,6-pentafluorobenzyl)hydroxyphosphinyl]methyl]pentanedioic acid] | 85 ± 37.5 mm Hg-days |  |
| O=C(O)CCC(CCCS)C(=O)O (stereo not drawn) [Compound B, 2-(3-sulfanylpropyl)pentanedioic acid] | 116 ± 33.2 mm Hg-days | 109 ± 45.2 mm Hg-days |
